Results: PMC7616783, “A combined structural and biochemical approach reveals translocation and stalling of UvrB on the DNA lesion as a mechanism of damage verification in bacterial nucleotide excision repair” (DNA repair, 2019)
These are yes or no findings as the source states them, for the method shown. Some entries that bind do so weakly or less than the wild type.

How the values were obtained:
Thermotoga maritima UvrA [1] = target: T1, Thermotoga maritima UvrA (Thermotoga maritima, UniProt Q9WYV0 1-916); assay: negative-stain EM single-particle reconstruction; SEC-purified UvrA—UvrB—DNA complex at 15 μg/ml on carbon-coated grids, 2% uranyl formate; 10,523 particles, 25.5 Å, no symmetry imposed; DNA not visible; both purified
T1 construct: UvrA, Thermotoga maritima; theoretical MW of the dimer printed as 205.8 kDa; the modelling section counts residues 1-916; In the assays it stood with fluorescein-modified DNA, ADP and Mg2+; also called Tm-UvrA; T. maritima (Tm) UvrA; source: BL21 STAR (DE3), pET28-SUMO based plasmid, purified (nickel resin, Ulp1 digestion, nickel resin, gel filtration)
T1 sequence: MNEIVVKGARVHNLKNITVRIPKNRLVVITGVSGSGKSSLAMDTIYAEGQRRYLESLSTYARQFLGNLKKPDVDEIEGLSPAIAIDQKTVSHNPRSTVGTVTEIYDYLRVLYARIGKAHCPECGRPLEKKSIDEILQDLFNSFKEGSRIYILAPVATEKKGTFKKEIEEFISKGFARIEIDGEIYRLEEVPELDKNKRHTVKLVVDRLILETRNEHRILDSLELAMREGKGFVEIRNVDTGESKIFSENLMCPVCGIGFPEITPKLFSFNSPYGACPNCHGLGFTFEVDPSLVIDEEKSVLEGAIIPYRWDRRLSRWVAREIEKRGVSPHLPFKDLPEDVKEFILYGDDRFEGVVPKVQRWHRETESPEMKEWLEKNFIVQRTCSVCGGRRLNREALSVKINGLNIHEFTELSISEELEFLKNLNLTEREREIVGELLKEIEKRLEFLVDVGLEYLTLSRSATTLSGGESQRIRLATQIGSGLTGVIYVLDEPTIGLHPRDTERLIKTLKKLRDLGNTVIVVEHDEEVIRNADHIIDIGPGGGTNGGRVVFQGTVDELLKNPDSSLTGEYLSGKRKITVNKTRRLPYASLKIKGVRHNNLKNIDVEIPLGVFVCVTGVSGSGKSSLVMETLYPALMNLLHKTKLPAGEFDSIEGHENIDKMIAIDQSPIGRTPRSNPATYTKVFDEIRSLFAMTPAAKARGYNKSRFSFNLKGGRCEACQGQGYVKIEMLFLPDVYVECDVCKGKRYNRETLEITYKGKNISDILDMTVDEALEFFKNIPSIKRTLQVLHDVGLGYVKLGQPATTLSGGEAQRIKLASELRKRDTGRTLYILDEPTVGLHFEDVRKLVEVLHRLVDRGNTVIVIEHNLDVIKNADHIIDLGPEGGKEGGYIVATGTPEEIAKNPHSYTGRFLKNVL

Thermotoga maritima UvrA [2] = target: T1, Thermotoga maritima UvrA; assay: SEC-MALS; data not shown: peak fractions of the UvrA—UvrB—DNA complex pooled and run again over SEC-MALS; both purified

B1: Thermus thermophilus UvrB (natural protein, UniProt Q56243 1-665, looked up)
chain: MTFRYRGPSPKGDQPKAIAGLVEALRDGERFVTLLGATGTGKTVTMAKVIEALGRPALVLAPNKILAAQLAAEFRELFPENAVEYFISYYDYYQPEAYVPGKDLYIEKDASINPEIERLRHSTTRSLLTRRDVIVVASVSAIYGLGDPREYRARNLVVERGKPYPREVLLERLLELGYQRNDIDLSPGRFRAKGEVLEIFPAYETEPIRVELFGDEVERISQVHPVTGERLRELPGFVLFPATHYLSPEGLEEILKEIEKELWERVRYFEERGEVLYAQRLKERTLYDLEMLRVMGTCPGVENYARYFTGKAPGEPPYTLLDYFPEDFLVFLDESHVTVPQLQGMYRGDYARKKTLVDYGFRLPSALDNRPLRFEEFLERVSQVVFVSATPGPFELAHSGRVVEQIIRPTGLLDPLVRVKPTENQILDLMEGIRERAARGERTLVTVLTVRMAEELTSFLVEHGIRARYLHHELDAFERQALIRDLRLGHYDCLVGINLLREGLDIPEVSLVAILDADKEGFLRSERSLIQTIGRAARNARGEVWLYADRVSEAMQRAIEETNRRRALQEAYNLEHGITPETVRKEVRAVIRPEGYEEAPLEADLSGEDLRERIAELELAMWQAAEALDFERAARLRDEIRALEARLQGVRAPEPVPGGRKRKRR
notes: theoretical MW printed as 76.2 kDa; Two UvrB monomers stand in the complex, one on each side of the UvrA dimer; The complex is heterologous (T. maritima UvrA with T. thermophilus UvrB); also called Tt-UvrB; Thermus thermophilus (Tt) UvrB; source: BL21-CodonPlus(DE3)-RIL, pET28 based plasmid, purified (nickel resin, HRV 3C digestion, nickel resin, gel filtration)
Thermotoga maritima UvrA [1]
  binding: binds
Thermotoga maritima UvrA [2]
  binding: binds
